According to US8343759B2, “Mammalian cell line expressing inducible c-Src” (National University Corporation Chiba University, priority 2007, dated 2013):
“Also recorded” adds a separate entry of the source. At least one compound was matched to its structure with a doubt left.

Legend:
HeLa cells = experiment: EGF-induced macropinosome formation marked with Src(SH4-Unique)-GFP; assay type: cell-based, human; conditions: serum-starved HeLa cells expressing Src(SH4-Unique)-GFP, pretreated 30 min with 5 μM SU6656 or 200 nM wortmannin, then 50 ng/ml EGF for 15 min
Experimental: During stimulation, cells were treated with 1 mg/ml RITC-dextran (B). White arrows indicate macropinosomes. […] The number of macropinosomes associated with Src(SH4-Unique)-GFP per 200 cells is shown. Data represent means±SD from three independent experiments. […] Equal amounts of lysates (input lysates) were analyzed by Western blotting with anti-pTyr and anti-actin antibodies. c-Src immunoprecipitates from lysates were analyzed by Western blotting with anti-Src[Y^418] and anti-Src antibodies. c-Src kinase activity was quantitated by measuring signal intensity using anti-Src[pY^418] antibody and normalized to the corresponding signal intensity detected by anti-Src. Results are expressed as mean values (fold) relative to the specific activity of c-Src in unstimulated control cells. […] The number of Src:(SH4-Unique)-GFP-labeled macropinosomes per 200 HeLa (left) or 100 A431 (right) cells was counted. Data represent means±SD from three independent experiments. […] F: Lysates were analyzed by Western blotting with anti-Src[Y^418], anti-Src, anti-pTyr, and anti-actin antibodies. […] White arrows indicate macropinosomes containing RITC-dextran. […] I: Co-localization of RITC-dextran with cathepsin D in macropinosomes was quantitated. […] Macropinosomes wider than 2 μm labeled by c-Src or mutants were counted. All values were expressed as means±D from three independent experiments. […]

COS-I cells = experiment: Formation of large vesicles (macropinosomes) in cells expressing Src-GFP; assay type: cell-based; conditions: data not shown

COC[C@H]1OC(=O)c2coc3c2[C@@]1(C)C1=C(C3=O)[C@@H]2CCC(=O)[C@@]2(C)C[C@H]1OC(C)=O [wortmannin]
inhibition of EGF-induced macropinosome formation (HeLa cells): blocked; also recorded: strongly inhibited
inhibition of formation of large vesicles (COS-I cells): inhibited
